In assay [1] the target is T1, GST-fused ROC15(GARP) (Rhythm Of Chloroplast 15, GARP domain, M377-M445) (C. reinhardtii) (UniProt B1B5J3).
T1 sequence: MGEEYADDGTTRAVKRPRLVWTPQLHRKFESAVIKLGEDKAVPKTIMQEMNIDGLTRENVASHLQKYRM
Briefly: SEC-SAXS; mixture of GST-ROC15(GARP motif only) and CraCRY; Superdex 200, 50 mM HEPES pH 7.4, 150 mM NaCl, 5% glycerol, 25 °C; data compared with a docked model; both purified. (In general: SEC sorts molecules by how far they enter the pores of the column.)

Assay [2] concerns the target T1, GST-fused ROC15(GARP) (Rhythm Of Chloroplast 15, GARP domain, M377-M445) (C. reinhardtii). Briefly: pull-down; GST pull-down, dark: same mixture incubated 20 min at room temperature in the dark and loaded on the GST affinity column directly in the dark; eluate on SDS-PAGE; both purified.
Assay [3] has the same target. Briefly: pull-down; GST pull-down, lit: 400 μL of 10 mg/mL His-CraCRY(wt)/PHR/CTE with 400 μL of 3 mg/mL GST-ROC15(GARP), room temperature, 20 min dark, then blue light (450 nm LED) 5 min; GST affinity column, 50 mM HEPES, 150 mM NaCl; eluate on SDS-PAGE; both purified.
Assay [4] addresses CraCRY::mCitrine(N) (C. reinhardtii). The assay is described as follows: split reporter; BiFC with split mCitrine in live C. reinhardtii cells, read by fluorescence-lifetime imaging; dark.
For assay [5] the target is unchanged. The assay is described as follows: split reporter; BiFC with split mCitrine in live C. reinhardtii cells, read by fluorescence-lifetime imaging; lit (blue light).

No constants are given. Whether binding was seen depends on the method and setting. For some assays here: Binding calls can cover weak binding; strength is not graded here. For some assays here: Sequences can lack the tags named with a protein. For some assays here: Binding seen in cells or lysates may run through a third protein.

Regarding “His-tag-fused full-length wild-type CraCRY (C. reinhardtii animal-like cryptochrome)”, the binding result in assay [1] was “binds”; in assay [2], “no binding (only in the dark)”; in assay [3], “binds”.

B1: ROC15::mCitrine(C) (full-length ROC15 labeled with split mCitrine C-terminal) (protein, UniProt B1B5J3 1-631)
chain: MAFDASGALQSCYGAKEDANMDPAAGLVPLTSSLIPPLLAHAFALPQLAQAPAPAQLQPQATAQGYYGSMLSPALMGALGYATGASYAPVQQQQPSHLASLQYGYLHALATASQQQQQQQQQQQHSAAALLAHAHNAAALAAVRAGQATSSAMSHPLPPAASADTGSARGAGPSASEPERAASASVATNSSGSALRGSSASYGSAAAAAAYAHPLMGLYAALSQQQQQAAAYGASPANSYGAMAPFTTHLHPAYYARPQDAGQAAAAAAAAAAAAGAYGYAQPTASYGSSFGHPASSYGGAPSSILDFSSSLAAAYRPVAMPAMPAASALAAAAAVAAAAGAMPQTSQSVGMTGAVAAGGGANGAVSSLGGGAAGMMGEEYADDGTTRAVKRPRLVWTPQLHRKFESAVIKLGEDKAVPKTIMQEMNIDGLTRENVASHLQKYRMIKRRDVTGTSSDGGRDSGTTAAPTSAGTAAAAQRQAQQQQQRPSDGATAADGTAGCSPAAVSSPAVAAAAPPSTAAAAATPSAPHSAHKPSTHGQGSSGSGGSGCGGSGSGSGGHGSGSSARAGSKRSEPEPPSRPTPQRAVAVTEAALASSAHPAGSSGSGRNSAGGSAAAATAAAAGNGVAVMA
With B1, the binding result in assay [4] is given as “no binding (only in the dark)”; in assay [5], “binds”.

(Values after PMC9579160.)
